Results: the supplement of paper PMC12819154, “High-throughput peptide-centric local stability assay extends protein–ligand identification to membrane proteins, tissues and bacteria” (Nature Structural & Molecular Biology, 2025)
This is one part of the list. Small differences around the control level are noise.

Amino acid sequences for entries named in this document (tags omitted). A change or cut given only in a name is not applied to a line headed by its entry.
UniProt Q8K2H4: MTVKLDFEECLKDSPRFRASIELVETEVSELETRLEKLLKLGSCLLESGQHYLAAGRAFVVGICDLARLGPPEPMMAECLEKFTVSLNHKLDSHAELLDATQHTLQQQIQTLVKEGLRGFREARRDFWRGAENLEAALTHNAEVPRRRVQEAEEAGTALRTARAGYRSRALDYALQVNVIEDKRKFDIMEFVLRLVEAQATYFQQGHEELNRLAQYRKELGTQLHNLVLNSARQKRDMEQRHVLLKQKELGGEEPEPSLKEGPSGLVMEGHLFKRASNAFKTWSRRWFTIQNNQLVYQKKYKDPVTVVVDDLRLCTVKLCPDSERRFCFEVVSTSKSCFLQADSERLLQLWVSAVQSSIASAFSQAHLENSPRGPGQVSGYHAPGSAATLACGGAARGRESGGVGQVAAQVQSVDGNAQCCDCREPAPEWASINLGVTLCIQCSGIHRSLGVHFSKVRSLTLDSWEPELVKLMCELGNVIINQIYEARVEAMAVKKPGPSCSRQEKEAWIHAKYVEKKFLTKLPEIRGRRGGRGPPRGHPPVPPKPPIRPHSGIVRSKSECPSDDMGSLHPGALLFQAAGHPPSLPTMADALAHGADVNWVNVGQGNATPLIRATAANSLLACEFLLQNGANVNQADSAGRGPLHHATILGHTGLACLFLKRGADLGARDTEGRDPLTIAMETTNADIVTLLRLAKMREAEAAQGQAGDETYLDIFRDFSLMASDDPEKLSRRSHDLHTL
UniProt Q8K1N4: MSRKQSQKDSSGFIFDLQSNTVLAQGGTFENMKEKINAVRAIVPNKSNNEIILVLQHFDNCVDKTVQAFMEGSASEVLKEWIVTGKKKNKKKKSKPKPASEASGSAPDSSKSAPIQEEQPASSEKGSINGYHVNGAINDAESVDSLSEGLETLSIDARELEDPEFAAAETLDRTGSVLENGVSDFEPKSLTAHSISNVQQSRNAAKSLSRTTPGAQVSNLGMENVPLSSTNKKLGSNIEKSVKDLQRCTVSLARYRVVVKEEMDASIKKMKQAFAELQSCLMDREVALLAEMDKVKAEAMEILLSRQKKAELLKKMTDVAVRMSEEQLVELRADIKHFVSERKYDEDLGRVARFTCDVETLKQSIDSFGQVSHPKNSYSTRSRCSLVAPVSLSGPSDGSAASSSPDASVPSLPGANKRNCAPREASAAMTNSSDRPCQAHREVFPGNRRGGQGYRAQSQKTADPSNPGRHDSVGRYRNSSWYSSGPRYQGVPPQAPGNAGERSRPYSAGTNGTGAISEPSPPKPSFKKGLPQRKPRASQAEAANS
UniProt Q8K4B0: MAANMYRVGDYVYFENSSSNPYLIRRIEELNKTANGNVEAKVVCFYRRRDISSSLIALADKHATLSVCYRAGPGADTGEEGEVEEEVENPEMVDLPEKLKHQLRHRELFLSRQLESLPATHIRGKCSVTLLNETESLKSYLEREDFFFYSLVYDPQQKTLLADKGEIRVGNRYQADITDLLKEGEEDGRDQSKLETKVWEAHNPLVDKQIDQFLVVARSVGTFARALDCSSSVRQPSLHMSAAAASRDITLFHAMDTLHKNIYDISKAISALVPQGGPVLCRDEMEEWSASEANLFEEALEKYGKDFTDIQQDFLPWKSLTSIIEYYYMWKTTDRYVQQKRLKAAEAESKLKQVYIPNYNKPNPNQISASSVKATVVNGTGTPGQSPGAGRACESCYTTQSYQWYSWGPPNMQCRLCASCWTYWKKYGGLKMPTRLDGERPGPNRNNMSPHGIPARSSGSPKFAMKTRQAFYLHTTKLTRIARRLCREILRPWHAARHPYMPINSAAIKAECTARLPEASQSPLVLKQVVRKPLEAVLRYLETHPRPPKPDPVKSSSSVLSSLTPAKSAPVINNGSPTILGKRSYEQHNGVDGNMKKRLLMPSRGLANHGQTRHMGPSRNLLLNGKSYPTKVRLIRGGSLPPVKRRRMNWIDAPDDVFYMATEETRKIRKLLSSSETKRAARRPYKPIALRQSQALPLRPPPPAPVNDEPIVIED
UniProt Q8R1F1: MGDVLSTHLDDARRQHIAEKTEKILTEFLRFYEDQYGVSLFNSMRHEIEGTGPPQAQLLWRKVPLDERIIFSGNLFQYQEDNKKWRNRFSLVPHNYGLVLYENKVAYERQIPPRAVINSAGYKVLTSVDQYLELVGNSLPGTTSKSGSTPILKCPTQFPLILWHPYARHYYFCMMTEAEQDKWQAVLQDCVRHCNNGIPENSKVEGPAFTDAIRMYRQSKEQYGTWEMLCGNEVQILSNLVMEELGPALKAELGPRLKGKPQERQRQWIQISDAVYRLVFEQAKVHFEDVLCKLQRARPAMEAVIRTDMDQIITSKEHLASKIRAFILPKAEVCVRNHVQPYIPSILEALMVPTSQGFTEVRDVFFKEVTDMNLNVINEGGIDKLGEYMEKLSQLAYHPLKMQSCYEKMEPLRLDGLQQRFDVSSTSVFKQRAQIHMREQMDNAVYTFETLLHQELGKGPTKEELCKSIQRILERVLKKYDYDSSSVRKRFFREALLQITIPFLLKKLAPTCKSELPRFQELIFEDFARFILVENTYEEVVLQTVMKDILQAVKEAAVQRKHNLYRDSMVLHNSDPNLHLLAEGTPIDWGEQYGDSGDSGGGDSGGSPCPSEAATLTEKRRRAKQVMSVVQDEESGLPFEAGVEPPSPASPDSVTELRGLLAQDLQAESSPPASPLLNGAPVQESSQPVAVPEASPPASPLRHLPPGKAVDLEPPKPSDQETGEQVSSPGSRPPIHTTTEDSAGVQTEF
UniProt Q8K1C9: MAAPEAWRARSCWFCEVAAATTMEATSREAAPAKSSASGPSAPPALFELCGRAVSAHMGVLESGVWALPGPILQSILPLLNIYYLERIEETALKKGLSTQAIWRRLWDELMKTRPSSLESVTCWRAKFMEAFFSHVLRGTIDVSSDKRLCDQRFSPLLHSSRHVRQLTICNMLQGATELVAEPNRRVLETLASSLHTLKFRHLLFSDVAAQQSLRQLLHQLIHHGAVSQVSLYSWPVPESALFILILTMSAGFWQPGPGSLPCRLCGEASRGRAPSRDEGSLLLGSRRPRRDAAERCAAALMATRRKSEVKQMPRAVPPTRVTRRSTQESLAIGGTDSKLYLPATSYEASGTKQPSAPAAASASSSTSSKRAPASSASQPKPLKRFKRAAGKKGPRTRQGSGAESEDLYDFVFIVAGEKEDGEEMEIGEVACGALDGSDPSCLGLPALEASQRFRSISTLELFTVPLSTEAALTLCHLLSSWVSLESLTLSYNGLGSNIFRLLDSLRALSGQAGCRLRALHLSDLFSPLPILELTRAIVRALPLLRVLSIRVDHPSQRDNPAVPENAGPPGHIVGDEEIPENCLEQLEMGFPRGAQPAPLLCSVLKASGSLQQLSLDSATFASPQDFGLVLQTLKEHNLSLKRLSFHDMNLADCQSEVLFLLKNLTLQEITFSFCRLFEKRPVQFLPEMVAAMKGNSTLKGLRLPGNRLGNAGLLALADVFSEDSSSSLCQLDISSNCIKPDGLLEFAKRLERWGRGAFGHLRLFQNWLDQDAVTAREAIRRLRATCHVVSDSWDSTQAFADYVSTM
UniProt Q8K3A0: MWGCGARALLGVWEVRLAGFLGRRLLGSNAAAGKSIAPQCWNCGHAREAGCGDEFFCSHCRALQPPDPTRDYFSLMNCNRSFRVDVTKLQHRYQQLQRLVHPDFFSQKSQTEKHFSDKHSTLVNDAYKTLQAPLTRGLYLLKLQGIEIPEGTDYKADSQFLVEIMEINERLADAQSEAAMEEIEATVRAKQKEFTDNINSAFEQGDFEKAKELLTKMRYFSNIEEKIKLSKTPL
UniProt Q8R1G6: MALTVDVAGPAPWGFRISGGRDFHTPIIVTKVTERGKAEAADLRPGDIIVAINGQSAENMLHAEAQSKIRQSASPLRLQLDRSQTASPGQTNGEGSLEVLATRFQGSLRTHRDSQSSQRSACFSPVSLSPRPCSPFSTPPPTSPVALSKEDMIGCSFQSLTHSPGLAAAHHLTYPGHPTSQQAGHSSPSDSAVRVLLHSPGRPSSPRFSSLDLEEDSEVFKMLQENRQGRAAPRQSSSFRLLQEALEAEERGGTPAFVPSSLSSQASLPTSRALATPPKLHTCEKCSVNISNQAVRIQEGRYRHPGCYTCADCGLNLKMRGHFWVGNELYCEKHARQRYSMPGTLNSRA
UniProt Q8R105: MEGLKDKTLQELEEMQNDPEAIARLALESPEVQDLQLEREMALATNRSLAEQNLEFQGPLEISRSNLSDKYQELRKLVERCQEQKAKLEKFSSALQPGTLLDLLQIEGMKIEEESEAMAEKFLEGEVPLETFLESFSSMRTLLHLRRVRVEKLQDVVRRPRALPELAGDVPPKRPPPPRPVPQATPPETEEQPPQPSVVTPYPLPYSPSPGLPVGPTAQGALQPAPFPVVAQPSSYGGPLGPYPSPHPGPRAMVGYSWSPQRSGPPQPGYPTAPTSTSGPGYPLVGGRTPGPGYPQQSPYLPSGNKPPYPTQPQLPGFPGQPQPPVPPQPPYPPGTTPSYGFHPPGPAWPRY
UniProt Q8K2Q0, whole entry: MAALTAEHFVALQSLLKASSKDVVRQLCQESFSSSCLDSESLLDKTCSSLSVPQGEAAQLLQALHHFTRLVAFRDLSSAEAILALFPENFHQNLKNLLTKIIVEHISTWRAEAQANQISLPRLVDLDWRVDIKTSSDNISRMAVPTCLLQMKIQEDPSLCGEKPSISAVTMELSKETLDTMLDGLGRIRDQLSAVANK
UniProt Q8K3M5: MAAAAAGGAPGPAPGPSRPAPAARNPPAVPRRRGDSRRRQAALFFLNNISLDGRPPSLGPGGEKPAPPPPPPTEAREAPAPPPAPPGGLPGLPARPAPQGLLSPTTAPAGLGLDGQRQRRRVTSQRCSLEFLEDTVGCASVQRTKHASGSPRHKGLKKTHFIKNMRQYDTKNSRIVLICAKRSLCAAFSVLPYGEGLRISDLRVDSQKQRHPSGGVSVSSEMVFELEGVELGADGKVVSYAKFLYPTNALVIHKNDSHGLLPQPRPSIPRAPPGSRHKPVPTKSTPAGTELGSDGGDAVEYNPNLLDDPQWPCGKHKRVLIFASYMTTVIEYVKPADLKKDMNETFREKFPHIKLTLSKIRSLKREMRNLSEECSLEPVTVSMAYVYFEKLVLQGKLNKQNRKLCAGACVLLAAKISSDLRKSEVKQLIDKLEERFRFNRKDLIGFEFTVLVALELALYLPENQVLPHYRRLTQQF
UniProt Q8R1G1: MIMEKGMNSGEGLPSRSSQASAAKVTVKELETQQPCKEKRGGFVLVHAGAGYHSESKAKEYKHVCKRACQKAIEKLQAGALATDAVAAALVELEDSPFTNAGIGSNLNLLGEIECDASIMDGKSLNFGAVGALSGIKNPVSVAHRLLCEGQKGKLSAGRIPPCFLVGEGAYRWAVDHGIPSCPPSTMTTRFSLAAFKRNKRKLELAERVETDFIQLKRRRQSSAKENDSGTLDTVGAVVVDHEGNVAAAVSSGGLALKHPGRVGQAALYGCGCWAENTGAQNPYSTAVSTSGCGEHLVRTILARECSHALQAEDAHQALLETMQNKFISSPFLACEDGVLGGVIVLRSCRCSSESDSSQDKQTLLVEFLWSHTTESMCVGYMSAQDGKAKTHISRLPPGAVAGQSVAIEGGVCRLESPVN

compound: CN[C@@H]1C[C@H]2O[C@@](C)([C@@H]1OC)n1c3ccccc3c3c4c(c5c6ccccc6n2c5c31)C(=O)NC4 [staurosporine]; test: log2 fold change of tryptic peptide abundance, ligand vs vehicle (limited proteolysis) (log2 ratio); higher = more trypsin-susceptible (destabilized); conditions: ligand concentration: 20 uM; sample: mouse liver crude lysate; replicate design: treated separately

Target | log2 fold change
UniProt Q8K2H4 (peptide sequence: GAENLEAALTHNAEVPR, peptide start residue: 130) | 0.282
UniProt Q8K1N4 (peptide sequence: SKPKPASEASGSAPDSSK, peptide start residue: 94) | -0.147
UniProt Q8K4B0 (peptide sequence: KPLEAVLR, peptide start residue: 532) | 0.257
UniProt Q8R1F1 (peptide sequence: TDMDQIITSK, peptide start residue: 307) | 0.601
UniProt Q8K1C9 (peptide sequence: RSTQESLAIGGTDSK, peptide start residue: 325) | -0.28
UniProt Q8K3A0 (peptide sequence: YFSNIEEK, peptide start residue: 219) | 0.271
UniProt Q8R1G6 (peptide sequence: YRHPGCYTCADCGLNLK, peptide start residue: 302) | -0.691
UniProt Q8R105 (peptide sequence: SNLSDKYQELR, peptide start residue: 65) | 0.0485
UniProt Q8K2Q0 (peptide sequence: IRDQLSAVANK, peptide start residue: 188) | -0.373
UniProt Q8K3M5 (peptide sequence: FLYPTNALVIHK, peptide start residue: 243) | 0.0761
UniProt Q8R1G1 (peptide sequence: FSLAAFKR, peptide start residue: 191) | -0.209

2 consecutive entries already listed, quoted:
Target | log2 fold change
UniProt Q8K4B0 (peptide sequence: KPLEAVLR, peptide start residue: 532) | 0.257
UniProt Q8R1F1 (peptide sequence: TDMDQIITSK, peptide start residue: 307) | 0.601
